Drawing on paper PMC7883825, this text covers binding for one molecule.

The assay addresses FLAG-tagged RING finger protein 219 (RNF219). The experiment in a line: affinity purification with mass spectrometry; FLAG affinity purification of FLAG-RNF219 from nuclear and cytoplasmic S100 extracts of the HEK-293 FIT stable line, doxycycline 48 h, with Benzonase; SDS-PAGE, silver staining, mass spectrometry.

These are yes or no findings as the source states them, for the method shown. Binding seen in cells or lysates may run through a third protein. A yes stands for co-enrichment or nearness to the bait. Other partners may have been found. A no says only that the protein was not detected with the bait.

B1: CNOT4 (protein, UniProt O95628 1-575)
chain: MSRSPDAKEDPVECPLCMEPLEIDDINFFPCTCGYQICRFCWHRIRTDENGLCPACRKPYPEDPAVYKPLSQEELQRIKNEKKQKQNERKQKISENRKHLASVRVVQKNLVFVVGLSQRLADPEVLKRPEYFGKFGKIHKVVINNSTSYAGSQGPSASAYVTYIRSEDALRAIQCVNNVVVDGRTLKASLGTTKYCSYFLKNMQCPKPDCMYLHELGDEAASFTKEEMQAGKHQEYEQKLLQELYKLNPNFLQLSTGSVDKNKNKVTPLQRYDTPIDKPSDSLSIGNGDNSQQISNSDTPSPPPGLSKSNPVIPISSSNHSARSPFEGAVTESQSLFSDNFRHPNPIPSGLPPFPSSPQTSSDWPTAPEPQSLFTSETIPVSSSTDWQAAFGFGSSKQPEDDLGFDPFDVTRKALADLIEKELSVQDQPSLSPTSLQNSSSHTTTAKGPGSGFLHPAAATNANSLNSTFSVLPQRFPQFQQHRAVYNSFSFPGQAARYPWMAFPRNSIMHLNHTANPTSNSNFLDLNLPPQHNTGLGGIPVAGEEEVKVSTMPLSTSSHSLQQGQQPTSLHTTVA
Turning to B1, the binding result is “no binding”.
